According to article PMC9289710:
These are yes or no findings as the source states them, for the method shown. For part of these data: In cells and extracts the contact can be indirect. Some binding calls cover weakened binding; strength is not graded here. Blank lines part the entries; values can stand above or below the substance they belong to.

The chains behind the UniProt entries cited, without tags or fusion partners.
UniProt P30153: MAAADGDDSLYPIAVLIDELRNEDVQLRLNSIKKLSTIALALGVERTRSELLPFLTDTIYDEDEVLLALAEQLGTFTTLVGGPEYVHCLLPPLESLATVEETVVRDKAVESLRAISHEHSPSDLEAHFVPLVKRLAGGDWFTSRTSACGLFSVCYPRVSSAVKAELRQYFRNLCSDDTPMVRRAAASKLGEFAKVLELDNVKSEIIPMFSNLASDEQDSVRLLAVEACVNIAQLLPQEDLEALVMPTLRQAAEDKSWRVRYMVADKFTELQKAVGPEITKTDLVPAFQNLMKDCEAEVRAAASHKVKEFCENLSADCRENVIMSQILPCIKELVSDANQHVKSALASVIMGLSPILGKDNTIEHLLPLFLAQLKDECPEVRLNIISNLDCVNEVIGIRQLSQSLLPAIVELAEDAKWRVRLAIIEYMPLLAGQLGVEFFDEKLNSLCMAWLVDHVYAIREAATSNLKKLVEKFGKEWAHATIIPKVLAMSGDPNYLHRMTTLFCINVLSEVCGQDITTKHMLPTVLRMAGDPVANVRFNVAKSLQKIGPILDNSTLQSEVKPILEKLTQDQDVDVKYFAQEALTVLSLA
UniProt Q15172: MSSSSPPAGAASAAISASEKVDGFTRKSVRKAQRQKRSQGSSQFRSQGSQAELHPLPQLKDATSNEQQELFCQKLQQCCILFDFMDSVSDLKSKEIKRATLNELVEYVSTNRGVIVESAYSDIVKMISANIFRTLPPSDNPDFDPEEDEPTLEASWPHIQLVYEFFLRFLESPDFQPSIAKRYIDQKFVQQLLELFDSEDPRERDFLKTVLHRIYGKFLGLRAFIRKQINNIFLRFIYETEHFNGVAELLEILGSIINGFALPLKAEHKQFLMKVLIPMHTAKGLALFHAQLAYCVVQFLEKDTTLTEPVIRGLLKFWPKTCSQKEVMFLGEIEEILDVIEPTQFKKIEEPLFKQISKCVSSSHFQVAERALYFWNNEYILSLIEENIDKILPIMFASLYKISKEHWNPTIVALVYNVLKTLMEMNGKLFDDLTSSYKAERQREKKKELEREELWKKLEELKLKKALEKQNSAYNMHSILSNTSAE

Tests used:
[1] = molecular target: FLAG-myc-PPP2R1A (scaffold) (UniProt P30153); experiment: co-IP; FLAG-myc-PPP2R1A immunoprecipitated on Myc-Trap agarose from stable inducible HeLa cells treated with DMSO, 20 µM DT-061 or 2 µM iHAP1 for 2 h; low salt lysis buffer; Western blotting
[2] = molecular target: PPP2R1A (human (endogenous in HeLa and H358)) (UniProt P30153); experiment: SEC; total cell extracts (HeLa, H358, HeLa with or without induced YFP-B56α; with or without DT-061) on Superdex200 10/300 in 130 mM NaCl, 25 mM Tris pH 7.4, 5 mM b-mercaptoethanol; fractions analysed by quantitative Licor Western blotting
Strep-B56α = Strep-B56α (UniProt Q15172); experiment: pull-down; Strep-B56α, His-PP2ACA and MBP-PPP2R1A co-expressed in HEK293; complex purified by a Strep-tag affinity column, peak fractions run on a GF200 10/30 column; 100 mM Tris pH 8.0, 150 mM NaCl, 10% glycerol, 0.5 mM TCEP
PP2A Aα subunit [3] = molecular target: PP2A Aα subunit (UniProt P30153); experiment: mass photometry; reconstituted PP2A-B56α holoenzyme at 50 nM, room temperature, without or with 2.5 µM DT-061; PBS or NMR buffer (methods); both purified
PP2A Aα subunit [4] = molecular target: PP2A Aα subunit (UniProt P30153); experiment: SEC; pure Aα and B56α and partially purified Cα mixed at a 1:1:1 molar ratio, dialysed overnight at 4°C, HiTrap Q anion exchange, then HiLoad Superdex 200 in 20 mM Tris-HCl pH 8.0, 250 mM NaCl, 5% glycerol, 2 mM DTT; fractions by SDS-PAGE; both purified

- binding [1]: binds
- binding [2]: binds
Substance: B56α (from UniProt Q15172 1-486)

- binding (Strep-B56α): binds
Substance: MBP-PPP2R1A (from UniProt P30153 1-589)

- binding (PP2A Aα subunit [3]): binds
- binding (PP2A Aα subunit [4]): binds
Substance: PP2A B56α subunit (from UniProt Q15172 1-486)

- binding [2]: binds
Substance: YFP-B56α (from UniProt Q15172 1-486)
